Test: Fluorescent intensity of compound at 10 uM in H2O
Type: physicochemical
Conditions: resorufin = 1

Row | SMILES | Fluorescent Intensity Relative
1 | O=c1ccc2nc3ccc(OCc4ccccc4)cc3oc-2c1 [Benzyloxy-resorufin] | 0.08
2 | COc1ccc(COc2ccc3nc4ccc(=O)cc-4oc3c2)cc1 [WC-5-5] | 0.08
3 | CCCCCOc1ccc2nc3ccc(=O)cc-3oc2c1 [Pentoxy-resorufin] | 0.11
4 | CCOc1ccc2nc3ccc(=O)cc-3oc2c1 [Ethoxy-resorufin] | 0.65
5 | COc1cccc(COc2ccc3nc4ccc(=O)cc-4oc3c2)c1 [WC-5-4] | 0.10
6 | O=c1ccc2nc3ccc(OCc4ccc(OCCF)cc4)cc3oc-2c1 [WC-5-7] | 0.07
7 | CC(=O)Oc1ccc2nc3ccc(=O)cc-3oc2c1 [Resorufin acetate] | 0.14
8 | O=c1ccc2nc3ccc(OCCF)cc3oc-2c1 [WC-5-2] | 0.21
9 | C#COc1ccc2nc3ccc(=O)cc-3oc2c1 [WC-5-1] | 0.29
10 | O=c1ccc2nc3ccc(OCc4cn(CCF)nn4)cc3oc-2c1 [WC-5-3] | 0.62
11 | COc1ccc2nc3ccc(=O)cc-3oc2c1 [Methoxy-resorufin] | 0.52

From patent publication US8735575B2, “Phenoxazine derivatives and methods of use thereof” (Washington University, priority 2010, dated 2014)
